Source: US20230220095A1 (ALETA BIOTHERAPEUTICS, published 2023)
These are yes or no findings as the source states them, for the method shown. Some entries that bind do so weakly or less than the wild type. Sequences can lack the tags named with a protein.

Sequences of proteins named here, by UniProt entry; tags and fusion partners are left off.
UniProt P28907: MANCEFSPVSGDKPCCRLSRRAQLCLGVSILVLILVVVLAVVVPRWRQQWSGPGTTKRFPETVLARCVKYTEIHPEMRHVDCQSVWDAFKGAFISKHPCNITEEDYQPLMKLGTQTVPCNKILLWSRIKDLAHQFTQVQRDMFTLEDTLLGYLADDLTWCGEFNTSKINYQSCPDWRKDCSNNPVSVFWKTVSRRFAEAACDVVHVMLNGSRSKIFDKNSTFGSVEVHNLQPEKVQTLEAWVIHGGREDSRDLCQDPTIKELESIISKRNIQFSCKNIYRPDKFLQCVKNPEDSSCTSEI

Key:
[1] = molecular target: CD38 on Daudi cells (human) (UniProt P28907); experiment: flow cytometry on Daudi cells, anti-His-PE detection
[2] = molecular target: CD38 on Daudi cells (human) (UniProt P28907); experiment: flow cytometry on Daudi cells, supernatant titration
[3] = molecular target: CD38 on Daudi cells (human) (UniProt P28907); experiment: flow cytometry on Daudi cells, anti-BCMA-PE detection

Measured: binding

B1: BCMA-anti-CD38 fusion protein, construct #494 (BCMA ECD C-terminal to the anti-CD38 scFv, C-terminal His tag) (other)
chain: DIQMTQSPSSLSASVGDRVTITCRASQGIRSWLAWYQQKPEKAPKSLIYAASSLQSGVPSRFSGSGSGTDFTLTISSLQPEDFATYYCQQYNSYPLTFGGGTKVEIKGGGGSGGGGSGGGGSGGGGSQVQLVQSGAEVKKPGSSVKVSCKAFGGTFSSYAISWVRQAPGQGLEWMGRIIRFLGIANYAQKFQGRVTLIADKSTNTAYMELSSLRSEDTAVYYCAGEPGERDPDAVDIWGQGTMVTVSSGGGGSGGGGSGGGGSGGGGSMLQMAGQCSQNEYFDSLLHACIPCQLRCSSNTPPLTCQRYCNASVTNSVKGTNAHHHHHH
notes: also called A494
binds: all assays above
